The experiment is described as follows: qHTS Assay for Modulators of Lamin A Splicing. As to conditions: HeLa LMNA splicing GFP/RFP minigene ratio, 48 h. An outline of the steps: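 Read-out is the ratio of GFP to DsRed2 object intensity, acquired by 488 nm laser-scanning cytometry on HeLa lamin A-EGFP minigene reporter cells. Compound incubation 48 hrs at 37 °C in Opti-MEM with 2% FBS; DMSO 0.5% final.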
(In general: In qHTS, concentration-response curves come from the screen itself.)

Setting [1] is: measured here: RFP viability control channel.
Where [2] appears, read: measured here: GFP splicing reporter channel.

This is one part of the list. Further columns of the screen follow, without active or inactive calls. Compounds called inactive in the main read-out are mostly missing here. Words in brackets tell the shape of the fitted curve; partial curves, single points and poor fits give uncertain potencies.

Consider `Cc1ccc(-n2nc(C)c(NC(=O)CCl)c2C)cc1C`, for which the AC50 under setting [1] is 2.24 µM [falling, partial curve, poor fit].
Same read-out and setting: the result for `Cn1ccnc1/C(=N\NC(=O)c1ccccc1)c1cccc([N+](=O)[O-])c1` reads 0.794 µM [falling, single point]; that for `O=C(Nc1cccc(Cl)c1)OCc1cncs1`, 17.8 µM [rising, single point]; that for `Cc1ccc(C(=O)c2ccccc2C(=O)OCC(=O)NC(C)(C)C)cc1`, 35.5 µM [rising, partial curve, poor fit].
In the case of `NC(=NCc1ccc(Cl)c(Cl)c1)NC(=O)c1nc(Cl)c(N)nc1N`, the half-maximal activity concentration (AC50) is, setting by setting: under setting [2], 15.8 µM [falling, partial curve]; under setting [1], 8.91 µM [falling, partial curve, poor fit].
On to `C/C(CC(=O)NCc1ccco1)=N\NC(=O)COc1ccc(Cl)cc1Cl`, for which the concentration at half-maximal activity (AC50) is 0.0794 µM [falling, full curve, poor fit] under setting [2] and 0.0251 µM [falling, full curve, poor fit] under setting [1].
On to `CC(=O)/C=C/n1c(=S)oc2ccccc21`, for which the AC50 reads like this: under setting [2], 5.62 µM [falling, single point]; under setting [1], 6.31 µM [falling, single point].
As for `O=C(NC1CCCc2ccccc21)c1cccc(S(=O)(=O)N2CCN(c3ccccc3)CC2)c1` (configuration not stated), the AC50 under setting [1] is 11.2 µM [rising, single point].
Still for that read-out and setting: the result for `Fc1ccc(N2CCN(Cc3cnc(N4CCOCC4)s3)CC2)cc1` reads 6.31 µM [falling, partial curve, poor fit].
The same measure, in the same setting: the result for `CCCCS(=O)(=O)/C=C\C1C2C=CC(C2)C1S(=O)(=O)CCCC` (configuration not stated) reads 0.00708 µM [falling, full curve].
As to `O=[N+]([O-])c1cc(C(F)(F)F)cc([N+](=O)[O-])c1NCCCNc1ccc([N+](=O)[O-])c2cccnc12`, the concentration at half-maximal activity (AC50) under setting [2] is 3.98 µM [rising, partial curve] and the AC50 under setting [1] was 0.1 µM [rising, full curve, poor fit].
`Cc1ccc(NC(=O)C(=O)NCCN2CCN(S(=O)(=O)c3ccccc3)CC2)cc1C`: the concentration at half-maximal activity (AC50) under setting [2] was 3.16 µM [falling, full curve, poor fit].
With `COc1cc(/C=C/CN2CCN(CCC(C)C)C(CCO)C2)ccc1O` (configuration not stated), the AC50 under setting [2] was 0.00316 µM [rising, full curve, poor fit].
As to `CNC(=O)c1c(NC(=O)/C=C/c2ccccc2Cl)sc2c1CCC2`, the half-maximal activity concentration (AC50) under setting [2] was 0.0398 µM [rising, full curve, poor fit] and the AC50 under setting [1] is 0.0224 µM [rising, full curve, poor fit].
As for `CC(C)N1CCN(CC#Cc2ccccc2)CC1CCO` (configuration not stated), the concentration at half-maximal activity (AC50) under setting [2] was 0.1 µM [falling, full curve, poor fit].
`O=C(O)[C@H](O)[C@@H](O)[C@H](O)[C@H](O)CO`: the AC50 under setting [1] was 0.2 µM [rising, full curve, poor fit].
For `CCN(CC)c1ccc(/C=N/NC(=O)c2ccco2)cc1`, the half-maximal activity concentration (AC50) under setting [2] was 10 µM [rising, partial curve, poor fit] and the AC50 under setting [1] is 5.62 µM [rising, full curve].
Take `CCCNC(=O)c1ccccc1NC(=O)c1ccccc1N(C)S(=O)(=O)c1ccccc1`: the AC50 under setting [1] is 15.8 µM [rising, single point].
The same measure, in the same setting: for `COc1cc(/C=N/n2nnnc2Nc2ccccc2)cc(OC)c1OC` the value was 14.1 µM [rising, single point].
As to `C=CCSc1nc2ccccc2n1C(=O)/C=C/c1ccc(OC)c(OC)c1`, the AC50 by setting is: under setting [2], 5.62 µM [falling, full curve]; under setting [1], 3.98 µM [falling, full curve].
Turning to `CCCS(=O)(=O)N1CCN(C(=O)c2ccc(-c3ccccc3)cc2)CC1`, the half-maximal activity concentration (AC50) under setting [1] was 25.1 µM [rising, single point].
Regarding `Fc1cc(Br)ccc1NC(=S)Nc1cccnc1`, the concentration at half-maximal activity (AC50) under setting [2] is 0.708 µM [falling, partial curve, poor fit].
As to `O=C(CCC(=O)OCC(F)(F)C(F)F)NCc1ccccc1`, the half-maximal activity concentration (AC50) under setting [1] is 3.55 µM [rising, single point].
On to `O=C1CC(=C(c2ccccc2)c2ccccc2)C(=O)N1CCCN1CCN(c2cccc(Cl)c2)CC1`, for which the AC50 under setting [2] is 10 µM [rising, partial curve, poor fit] and the concentration at half-maximal activity (AC50) under setting [1] was 11.2 µM [rising, partial curve, poor fit].
Consider `COc1ccc(CCNC(=O)c2ccc(CNS(=O)(=O)c3cc(C)ccc3C)cc2)cc1OC`, for which, under setting [1], the AC50 was 14.1 µM [rising, single point].
The same measure, in the same setting: for `O=C(NCc1ccccn1)C1CC(c2ccccc2Cl)=NO1` (configuration not stated) the value was 1.12 µM [falling, full curve, poor fit]; for `COc1ccc(NS(=O)(=O)c2cc(OCC(N)=O)c(C)cc2Cl)cc1`, 10 µM [rising, single point]; for `Cc1ccc(Cl)cc1NC(=O)C(=O)NCC(c1cccnc1)N1CCc2ccccc21` (configuration not stated), 20 µM [rising, single point].
As for `COc1ccc(-c2csc(NC(=O)COc3ccc(N(C)S(=O)(=O)c4ccc(C)cc4)cc3)n2)cc1`, the AC50 reads like this: under setting [2], 11.2 µM [rising, partial curve]; under setting [1], 10 µM [rising, partial curve].
Turning to `O=c1c2ccccc2nc2c3ccccc3c(NCCN3CCOCC3)nn12`, the AC50 is, setting by setting: under setting [2], 35.5 µM [falling, single point]; under setting [1], 35.5 µM [falling, single point].
As to `CCCC(=O)Nc1ccc(Br)c(Cl)c1`, the concentration at half-maximal activity (AC50) under setting [1] was 14.1 µM [rising, single point].
On to `CCC(c1nnnn1Cc1ccco1)N(CCc1ccccc1)Cc1cc2cc(C)ccc2[nH]c1=O` (configuration not stated), for which the AC50 under setting [2] is 11.2 µM [rising, partial curve] and the AC50 under setting [1] is 12.6 µM [rising, partial curve].
With `CSc1ccc(CN(C)CC(=O)Nc2c(F)cccc2F)cc1`, the AC50 under setting [2] is 0.501 µM [rising, full curve, poor fit].
`O=C(Nc1ccn(-c2ccccc2)n1)c1ccc(Cl)cc1`: the AC50 is, setting by setting: under setting [2], 2 µM [rising, single point]; under setting [1], 15.8 µM [rising, partial curve].
For `COc1ccc(S(=O)(=O)NCCc2c(C)nn(C)c2Oc2ccccc2)cc1`, the AC50 under setting [1] is 5.62 µM [rising, partial curve, poor fit].

By AC50 is commonly meant the concentration giving half of the maximal activity seen.

Source of the values: PubChem BioAssay AID1487 (National Center for Advancing Translational Sciences (NCATS), 2009).
